Assay results reported in PubChem BioAssay AID588590 (National Center for Advancing Translational Sciences (NCATS), 2011).
The whole screen tested about 390,000 compounds, of which about 4,000 (1%) were called active. The inconclusive results got no clear call from the source; some entries with a clear call stand among them for comparison. Calls come from the whole dose curve; as a rule, active = well fitted inhibition curve with a large enough effect; inconclusive = small, poorly fitted or top-dose-only effect, or another doubt; inactive = no such curve, though single readings can be large or run the other way. Potencies beside an inconclusive call are fits to weak or partial responses and may not hold up.

Chains of the proteins cited; added tags and fusions are not shown. Lines headed by an entry give the natural chain unless they say otherwise; changes in a name come on top.
UniProt Q9UNA4: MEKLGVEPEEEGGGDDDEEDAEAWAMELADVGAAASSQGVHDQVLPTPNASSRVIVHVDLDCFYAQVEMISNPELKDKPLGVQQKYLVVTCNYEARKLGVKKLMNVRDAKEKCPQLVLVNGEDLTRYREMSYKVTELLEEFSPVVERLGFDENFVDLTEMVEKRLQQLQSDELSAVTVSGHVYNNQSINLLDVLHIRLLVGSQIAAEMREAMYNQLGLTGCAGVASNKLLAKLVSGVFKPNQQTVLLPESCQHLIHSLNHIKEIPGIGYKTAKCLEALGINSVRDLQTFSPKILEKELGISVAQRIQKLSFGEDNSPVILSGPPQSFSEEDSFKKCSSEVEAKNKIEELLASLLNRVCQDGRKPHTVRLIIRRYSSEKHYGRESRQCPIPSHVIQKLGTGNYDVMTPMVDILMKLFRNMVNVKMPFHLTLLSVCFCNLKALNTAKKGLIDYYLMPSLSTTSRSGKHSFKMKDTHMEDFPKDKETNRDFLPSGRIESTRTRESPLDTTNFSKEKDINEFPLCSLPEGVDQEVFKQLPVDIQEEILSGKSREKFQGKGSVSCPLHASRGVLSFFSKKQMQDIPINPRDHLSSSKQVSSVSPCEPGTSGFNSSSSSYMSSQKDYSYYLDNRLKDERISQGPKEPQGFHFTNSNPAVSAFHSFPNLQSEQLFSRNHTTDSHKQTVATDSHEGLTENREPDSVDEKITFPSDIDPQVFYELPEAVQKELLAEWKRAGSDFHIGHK

What follows are molecules tested against DNA polymerase iota (Homo sapiens) (UniProt Q9UNA4) (assay: qHTS for Inhibitors of Polymerase Iota). Conditions: Pol iota fluorescent replication assay, 10 min; series mostly up to 115 µM; activity, negative = inhibition: at the top concentration.
Outline: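 Pol iota at 10 nM preincubated 15 min with compounds at room temperature; reaction started with fluorescent substrate, 50 nM final. Fluorescence read kinetically at 0 and 10 min; buffer-only wells as negative control.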
Potency is the fitted concentration of half-maximal effect.

SMILES	activity, negative = inhibition	Potency
Cc1nn(-c2ccc(N3CCCC3)nn2)c(C)c1CCC(=O)NCc1ccc(OC(C)C)cc1	inactive: 14.1%	–
O=C(NCCCN1CCc2ccccc2C1)Nc1ccc(Cl)cc1	–	inconclusive: 89.1 µM [inhibitor, single point]
COC(=O)C1C2C=CC3(CN(c4cccc(C)c4)C(=O)C13)O2 (configuration not stated)	–	inconclusive: 25.1 µM [inhibitor, full curve]
COc1ccccc1NC(=O)CCC(=O)O	inactive: 3.35%	–
Cc1ccc(NC(=O)CSc2nc(NS(=O)(=O)c3ccccc3)cc(=O)[nH]2)cc1	–	inconclusive: 20 µM [inhibitor, full curve, poor fit]
O=C(NCCC1=CCCCC1)c1ccc2c(c1)N(Cc1cccc(Cl)c1)C(=O)c1ccccc1S2(=O)=O	inactive: -28.2%	–
Cc1ccc2nc(/C(C#N)=C\c3ccc(Oc4ccc(C(F)(F)F)cc4[N+](=O)[O-])cc3)[nH]c2c1	inactive: 40.2%	–
CC1CCCCC1NC(=O)COC(=O)c1ccc2ncsc2c1 (configuration not stated)	–	inconclusive: 28.2 µM [inhibitor, partial curve]
CC(=O)c1cc2c(cc1NC(=O)c1cnn(-c3ccc(C)cc3)c1-n1cccc1)OCO2	inactive: 7.18%	–
COc1ccc(NC(=O)CSc2nnc(C3CC3)n2N)cc1	–	inconclusive: 112 µM [inhibitor, single point]
COC(=O)CNC(=O)C1Nc2ccccc2C2C=CCC12 (configuration not stated)	–	inconclusive: 39.8 µM [inhibitor, single point]
CCOC(=O)CN(C(=O)CNC(=O)c1ccco1)C(C(=O)NC1CCCC1)c1ccccc1OCC (configuration not stated)	–	inconclusive: 39.8 µM [inhibitor, single point]
Cc1c(NC(=O)CN2CCN(c3cccc(Cl)c3)CC2)c(=O)n(-c2ccccc2)n1C	–	inconclusive: 35.5 µM [inhibitor, partial curve, poor fit]
CCOc1ccc2nc3sc(C(=O)N4CCN(C)CC4)c(N)c3cc2c1	–	inconclusive: 20 µM [inhibitor, partial curve, poor fit]
CSc1ccc(S(=O)(=O)Nc2ccc3c4c(cccc24)CC3)cc1	–	inconclusive: 12.6 µM [inhibitor, single point]
CCOC(=O)C1=C(CN(CC)Cc2ccccc2)NC(=O)NC1c1ccc(OC(C)C)cc1 (configuration not stated)	inactive: -19.2%	–
N#CC(c1ccccc1)N(CCCCl)C(=O)c1ccccc1 (configuration not stated)	–	inconclusive: 56.2 µM [inhibitor, partial curve, poor fit]
Nc1c(C(=O)Nc2ccc(Br)cc2)sc2nc(-c3ccncc3)ccc12	–	inconclusive: 39.8 µM [inhibitor, partial curve, poor fit]
COc1ccc2c(c1)CC/C(=C\c1ccc(OC)c(Cn3nc(C)cc3C)c1)C2=O	–	inconclusive: 17.8 µM [inhibitor, full curve, poor fit]
O=C(Cc1ccc(Cl)c(Cl)c1)Nc1ccc2[nH]c(=O)[nH]c2c1	inactive: 100%	–
COc1cc(CCNC(=O)c2cnn3ccccc23)cc(OC)c1OC	–	inconclusive: 15.8 µM [inhibitor, full curve, poor fit]

One compound at a time, from the list above:
CC(=O)c1cc2c(cc1NC(=O)c1cnn(-c3ccc(C)cc3)c1-n1cccc1)OCO2 as listed: activity, negative = inhibition: inactive: 7.18%
O=C(NCCCN1CCc2ccccc2C1)Nc1ccc(Cl)cc1 as listed: Potency: inconclusive: 89.1 µM [inhibitor, single point]
COc1cc(CCNC(=O)c2cnn3ccccc23)cc(OC)c1OC as listed: Potency: inconclusive: 15.8 µM [inhibitor, full curve, poor fit]
Nc1c(C(=O)Nc2ccc(Br)cc2)sc2nc(-c3ccncc3)ccc12 as listed: Potency: inconclusive: 39.8 µM [inhibitor, partial curve, poor fit]

Going on with the list:

SMILES	activity, negative = inhibition	Potency
Cc1cc(C)cc(Nc2nc3c(S(=O)(=O)c4cccc(Cl)c4)nnn3c3ccsc23)c1	inactive: 14.1%	–
CCOC(=O)C1CCN(C(=O)CCc2ccc(S(=O)(=O)NCC(C)C)cc2)CC1	–	inconclusive: 79.4 µM [inhibitor, single point]
CN(C)S(=O)(=O)n1cc(/C=C(\NC(=O)c2ccccc2)C(=O)N2CCCC2)c2ccccc21	–	inconclusive: 31.6 µM [inhibitor, single point]
CCCCN1CC(=O)N2[C@H](c3ccc(OC)cc3)[C@@H]3C(=O)N(CC)C(=O)[C@@H]3[C@]2(C)C1=O	–	inconclusive: 2.82 µM [inhibitor, partial curve, poor fit]
O=c1c2ccccc2c(/C=N/NS(=O)(=O)c2ccccc2)c(O)n1-c1ccccn1	–	inconclusive: 56.2 µM [inhibitor, partial curve, poor fit]
COc1ccccc1N(O)C1CC(=O)N(c2ccc(Br)cc2)C1=O (configuration not stated)	–	inconclusive: 3.16 µM [inhibitor, full curve, poor fit]
COc1cc2cc(C(=O)N/N=C/c3ccc(F)cc3)[nH]c2cc1OC	–	inconclusive: 28.2 µM [inhibitor, partial curve]
CCOC(=O)C[n+]1cccc(Br)c1	–	inconclusive: 89.1 µM [inhibitor, single point]
Cc1cc(=O)oc2cc(OCC(=O)Nc3nnc(C(C)C)s3)ccc12	–	inconclusive: 89.1 µM [inhibitor, single point]
CC(=O)c1c(O)c2ccccc2n(C2CCCCC2)c1=O	–	inconclusive: 22.4 µM [inhibitor, full curve]
CCOC(=O)Cc1nnc(NC(=O)CSc2nnc3c4ccccc4n(C(C)C)c3n2)s1	–	inconclusive: 5.01 µM [inhibitor, full curve, poor fit]
COc1cccc(-c2cc(C(F)(F)F)nc(-n3ccc([N+](=O)[O-])n3)n2)c1	–	inconclusive: 50.1 µM [inhibitor, partial curve, poor fit]
Cc1cc(-c2ccc(C(C)C)c(S(=O)(=O)NCc3ccco3)c2)on1	–	inconclusive: 50.1 µM [inhibitor, partial curve, poor fit]
CCOc1ccc(C(=O)c2cn(CC(=O)Nc3cc(OC)ccc3OC)c3cc(OC)c(OC)cc3c2=O)cc1	–	inconclusive: 39.8 µM [inhibitor, single point]
COc1cccc(CNC(=O)c2nnn(CC(=O)Nc3ccc(C)c(C)c3)c2N)c1	–	inconclusive: 79.4 µM [inhibitor, partial curve, poor fit]
C#CCn1cc(/C=C2\NC(=O)NC2=O)c2ccccc21	–	inconclusive: 56.2 µM [inhibitor, partial curve, poor fit]
COC(=O)c1cccc(NC(=O)CSc2nc(C)cc(=O)[nH]2)c1	–	inconclusive: 17.8 µM [inhibitor, single point]
COc1ccc(CNC(=O)C(c2cccs2)N(Cc2ccco2)C(=O)Cc2cccs2)cc1 (configuration not stated)	–	inconclusive: 2.82 µM [inhibitor, single point]
O=C(CN1CCOCC1)Nc1ccccc1NC(=O)C1CCN(c2ncccn2)CC1	–	inconclusive: 79.4 µM [inhibitor, single point]
O=C(O)c1cccc(N/N=C/c2cc(Br)cc(Br)c2O)c1	–	inconclusive: 39.8 µM [inhibitor, full curve, poor fit]
N/C(=N\OC(=O)/C=C/c1ccccc1Cl)c1cccnc1	–	inconclusive: 89.1 µM [inhibitor, single point]

SMILES	activity, negative = inhibition	Potency
Cc1cc(C)c(S(=O)(=O)N2CCOC2CNC(=O)C(=O)NCc2ccco2)c(C)c1 (configuration not stated)	–	inconclusive: 3.16 µM [inhibitor, partial curve, poor fit]
CCN1C(=O)CS/C1=N\S(=O)(=O)c1ccc(Cl)cc1	inactive: 62.1%	–
C=CCN1C(=O)/C(=c2\sc3nc(=O)c(Cc4ccc(OC)c(OC)c4)nn3c2=O)c2ccccc21	–	inconclusive: 39.8 µM [inhibitor, partial curve, poor fit]
COc1ccc(CNC(=O)c2cc(=O)c3cc(C)c(C)cc3o2)cc1	–	inconclusive: 50.1 µM [inhibitor, single point]
O=C(O)c1cc(-c2ccc3c(c2)OCO3)nc2ccccc12	–	inconclusive: 2.51 µM [inhibitor, full curve, poor fit]
CCOC(=O)c1cccc(NC(=O)N2CCC(CN3CCCCCC3)CC2)c1	inactive: 10.2%	–
O=C(O)c1ccc2c(=O)[nH]c(CCl)nc2c1	inactive: 90.3%	–
O=C(c1cccnc1)N1CCN(Cc2ccccc2Br)CC1	–	inconclusive: 39.8 µM [inhibitor, single point]
COc1ccc(CN(Cc2ccccc2)C(=O)c2cccc(C#N)c2)cc1COc1ccc(NC(C)=O)cc1	inactive: -1.3%	–
O=C(Oc1ccccc1)c1ccccc1	–	inconclusive: 100 µM [inhibitor, single point]
CN(CCO)CC(O)CN(c1ccccc1)c1ccccc1 (configuration not stated)	–	inconclusive: 89.1 µM [inhibitor, single point]
CC(C)NC(=O)c1ccccc1NC(=O)C1COc2ccccc2O1 (configuration not stated)	–	inconclusive: 35.5 µM [inhibitor, single point]
Cc1ccc(Cl)c(Cn2cnc3c(cnn3C(C)(C)C)c2=O)c1F	–	inconclusive: 2.82 µM [inhibitor, partial curve, poor fit]
c1ccc(Nc2nc(N3CCCCC3)nc(N3CCCCC3)n2)cc1	–	inconclusive: 31.6 µM [inhibitor, single point]
CCOC(=O)c1[nH]c2ccc(OC)cc2c1NS(=O)(=O)c1ccc(Cl)s1	inactive: 122%	–
COc1ccc(-n2nc(C(=O)NCC(=O)Nc3cccc(Cl)c3)c3ccccc3c2=O)cc1OC	inactive: 47.8%	–
Oc1ccc(C=NN=C2c3ccccc3-c3ccccc32)c(O)c1	–	inconclusive: 79.4 µM [inhibitor, partial curve, poor fit]
Cc1ccc(/C=C/C(=O)Nc2cccc(S(=O)(=O)N3CCOCC3)c2)o1	–	inconclusive: 50.1 µM [inhibitor, partial curve]
CC(C(=O)NC1C(=O)N2C(C(=O)O)=C(CSc3nnnn3C)CSC12)n1cc(Br)cn1 (configuration not stated)	–	inconclusive: 17.8 µM [inhibitor, partial curve, poor fit]
O=C(CC1CS(=O)(=O)CC1CC(=O)Nc1ccc2c(c1)OCCO2)Nc1ccc2c(c1)OCCO2 (configuration not stated)	–	inconclusive: 20 µM [inhibitor, single point]
